Laboratory results as given in the supplement of paper PMC10849652.
The other results are listed elsewhere or left out.

Amino acid sequences for entries named in this document (tags omitted). A change or cut given only in a name is not applied to a line headed by its entry.
UniProt P55145: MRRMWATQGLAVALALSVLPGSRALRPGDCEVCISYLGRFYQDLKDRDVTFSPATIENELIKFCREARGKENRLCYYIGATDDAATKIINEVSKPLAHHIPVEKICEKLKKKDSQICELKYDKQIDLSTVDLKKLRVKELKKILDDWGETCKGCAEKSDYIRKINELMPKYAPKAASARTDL
UniProt Q9BQ69: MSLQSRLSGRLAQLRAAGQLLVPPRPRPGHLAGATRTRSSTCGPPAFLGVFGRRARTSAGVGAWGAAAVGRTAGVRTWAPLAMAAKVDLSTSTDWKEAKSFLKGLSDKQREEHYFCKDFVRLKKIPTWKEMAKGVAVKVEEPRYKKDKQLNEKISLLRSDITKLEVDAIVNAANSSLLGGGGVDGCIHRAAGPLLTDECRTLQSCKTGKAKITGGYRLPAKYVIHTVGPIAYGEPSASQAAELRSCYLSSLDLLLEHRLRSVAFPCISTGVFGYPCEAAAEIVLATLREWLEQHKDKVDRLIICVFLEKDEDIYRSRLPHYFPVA
UniProt Q9H063: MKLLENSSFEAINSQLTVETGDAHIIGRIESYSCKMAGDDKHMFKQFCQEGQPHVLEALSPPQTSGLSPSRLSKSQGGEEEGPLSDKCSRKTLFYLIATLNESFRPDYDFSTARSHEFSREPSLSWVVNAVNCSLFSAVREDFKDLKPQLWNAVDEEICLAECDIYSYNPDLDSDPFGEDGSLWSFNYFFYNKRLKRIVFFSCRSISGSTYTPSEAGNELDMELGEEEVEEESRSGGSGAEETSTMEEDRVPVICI
UniProt Q5SRI9: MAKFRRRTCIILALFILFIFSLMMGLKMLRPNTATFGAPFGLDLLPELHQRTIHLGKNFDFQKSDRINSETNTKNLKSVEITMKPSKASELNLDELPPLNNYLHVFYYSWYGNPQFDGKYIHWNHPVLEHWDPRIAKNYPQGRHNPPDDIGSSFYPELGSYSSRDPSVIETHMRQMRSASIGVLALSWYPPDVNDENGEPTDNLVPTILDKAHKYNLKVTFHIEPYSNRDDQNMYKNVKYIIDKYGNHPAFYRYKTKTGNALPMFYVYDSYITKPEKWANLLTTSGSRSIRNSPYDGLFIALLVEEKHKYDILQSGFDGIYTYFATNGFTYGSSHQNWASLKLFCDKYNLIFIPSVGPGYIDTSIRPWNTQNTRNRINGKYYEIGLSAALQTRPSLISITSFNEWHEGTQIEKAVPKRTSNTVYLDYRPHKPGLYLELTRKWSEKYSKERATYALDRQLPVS
UniProt Q9Y383: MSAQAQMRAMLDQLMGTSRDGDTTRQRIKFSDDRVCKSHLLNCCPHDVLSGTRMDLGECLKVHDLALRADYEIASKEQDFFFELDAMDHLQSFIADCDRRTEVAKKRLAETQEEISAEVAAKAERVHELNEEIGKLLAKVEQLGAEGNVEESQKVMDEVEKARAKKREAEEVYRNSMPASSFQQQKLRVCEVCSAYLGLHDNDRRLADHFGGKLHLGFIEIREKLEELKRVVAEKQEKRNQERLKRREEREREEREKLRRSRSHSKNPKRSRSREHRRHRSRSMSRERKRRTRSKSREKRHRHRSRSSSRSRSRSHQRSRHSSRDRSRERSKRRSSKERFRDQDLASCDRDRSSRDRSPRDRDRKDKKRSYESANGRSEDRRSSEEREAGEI
UniProt Q9ULX9: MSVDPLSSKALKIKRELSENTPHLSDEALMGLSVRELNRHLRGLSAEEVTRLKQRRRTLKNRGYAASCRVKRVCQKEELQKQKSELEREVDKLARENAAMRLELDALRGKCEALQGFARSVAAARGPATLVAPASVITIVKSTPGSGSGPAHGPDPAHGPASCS
UniProt Q9UPY8, whole entry, looked up: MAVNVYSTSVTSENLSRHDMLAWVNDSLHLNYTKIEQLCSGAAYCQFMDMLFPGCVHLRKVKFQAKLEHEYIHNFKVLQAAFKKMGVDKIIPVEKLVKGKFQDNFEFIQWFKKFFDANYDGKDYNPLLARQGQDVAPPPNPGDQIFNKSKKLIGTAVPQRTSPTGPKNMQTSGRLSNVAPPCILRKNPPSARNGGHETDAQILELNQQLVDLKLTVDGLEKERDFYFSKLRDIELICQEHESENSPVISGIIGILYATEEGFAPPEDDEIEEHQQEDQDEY
UniProt Q9Y2U5: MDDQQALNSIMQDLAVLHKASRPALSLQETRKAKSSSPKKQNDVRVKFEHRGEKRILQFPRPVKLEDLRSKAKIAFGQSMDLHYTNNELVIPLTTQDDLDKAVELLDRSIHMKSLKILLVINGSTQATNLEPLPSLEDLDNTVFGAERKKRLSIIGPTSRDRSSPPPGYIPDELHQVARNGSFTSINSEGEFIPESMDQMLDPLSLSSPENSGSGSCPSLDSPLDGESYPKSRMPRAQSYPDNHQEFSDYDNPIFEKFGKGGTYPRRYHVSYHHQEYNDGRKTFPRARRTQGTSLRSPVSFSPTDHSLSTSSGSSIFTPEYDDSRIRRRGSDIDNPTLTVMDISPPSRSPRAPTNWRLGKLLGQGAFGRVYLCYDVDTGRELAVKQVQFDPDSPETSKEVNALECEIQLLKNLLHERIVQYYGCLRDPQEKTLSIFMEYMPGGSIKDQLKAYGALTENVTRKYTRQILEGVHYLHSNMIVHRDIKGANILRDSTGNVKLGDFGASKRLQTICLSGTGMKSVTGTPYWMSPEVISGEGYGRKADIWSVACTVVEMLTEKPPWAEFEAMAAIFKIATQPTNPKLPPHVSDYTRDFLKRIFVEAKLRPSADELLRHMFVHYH
UniProt P43365, whole entry, looked up: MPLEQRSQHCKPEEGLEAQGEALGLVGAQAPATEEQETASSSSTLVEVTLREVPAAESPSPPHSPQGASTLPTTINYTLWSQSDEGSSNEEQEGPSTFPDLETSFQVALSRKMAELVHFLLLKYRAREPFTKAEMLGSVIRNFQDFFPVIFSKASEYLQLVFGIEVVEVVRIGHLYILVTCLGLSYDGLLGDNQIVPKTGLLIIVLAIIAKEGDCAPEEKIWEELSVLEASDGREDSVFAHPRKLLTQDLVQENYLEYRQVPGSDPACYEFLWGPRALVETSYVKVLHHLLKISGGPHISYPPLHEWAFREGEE
UniProt Q9Y4K4: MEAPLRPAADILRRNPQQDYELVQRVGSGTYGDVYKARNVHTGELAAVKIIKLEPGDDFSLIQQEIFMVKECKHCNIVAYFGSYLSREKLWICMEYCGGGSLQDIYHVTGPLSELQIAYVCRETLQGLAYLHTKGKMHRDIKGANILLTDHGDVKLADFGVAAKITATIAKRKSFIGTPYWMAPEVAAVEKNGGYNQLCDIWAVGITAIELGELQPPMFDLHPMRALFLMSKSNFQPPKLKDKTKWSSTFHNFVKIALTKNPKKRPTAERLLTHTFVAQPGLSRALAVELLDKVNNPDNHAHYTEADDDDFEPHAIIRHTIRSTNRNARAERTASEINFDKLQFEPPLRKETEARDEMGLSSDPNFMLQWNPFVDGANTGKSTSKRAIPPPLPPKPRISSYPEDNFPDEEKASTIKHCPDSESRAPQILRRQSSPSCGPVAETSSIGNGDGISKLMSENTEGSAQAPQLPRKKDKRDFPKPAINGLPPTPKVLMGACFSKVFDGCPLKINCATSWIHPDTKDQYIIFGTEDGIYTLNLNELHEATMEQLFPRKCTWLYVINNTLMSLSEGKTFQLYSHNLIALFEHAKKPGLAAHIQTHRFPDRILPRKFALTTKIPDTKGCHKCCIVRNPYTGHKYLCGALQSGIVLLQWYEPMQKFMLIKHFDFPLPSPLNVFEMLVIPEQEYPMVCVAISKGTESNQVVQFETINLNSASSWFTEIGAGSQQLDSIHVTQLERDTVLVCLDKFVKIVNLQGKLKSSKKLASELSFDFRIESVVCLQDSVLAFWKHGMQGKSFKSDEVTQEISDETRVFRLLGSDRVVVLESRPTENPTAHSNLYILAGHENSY
UniProt Q9Y5V3: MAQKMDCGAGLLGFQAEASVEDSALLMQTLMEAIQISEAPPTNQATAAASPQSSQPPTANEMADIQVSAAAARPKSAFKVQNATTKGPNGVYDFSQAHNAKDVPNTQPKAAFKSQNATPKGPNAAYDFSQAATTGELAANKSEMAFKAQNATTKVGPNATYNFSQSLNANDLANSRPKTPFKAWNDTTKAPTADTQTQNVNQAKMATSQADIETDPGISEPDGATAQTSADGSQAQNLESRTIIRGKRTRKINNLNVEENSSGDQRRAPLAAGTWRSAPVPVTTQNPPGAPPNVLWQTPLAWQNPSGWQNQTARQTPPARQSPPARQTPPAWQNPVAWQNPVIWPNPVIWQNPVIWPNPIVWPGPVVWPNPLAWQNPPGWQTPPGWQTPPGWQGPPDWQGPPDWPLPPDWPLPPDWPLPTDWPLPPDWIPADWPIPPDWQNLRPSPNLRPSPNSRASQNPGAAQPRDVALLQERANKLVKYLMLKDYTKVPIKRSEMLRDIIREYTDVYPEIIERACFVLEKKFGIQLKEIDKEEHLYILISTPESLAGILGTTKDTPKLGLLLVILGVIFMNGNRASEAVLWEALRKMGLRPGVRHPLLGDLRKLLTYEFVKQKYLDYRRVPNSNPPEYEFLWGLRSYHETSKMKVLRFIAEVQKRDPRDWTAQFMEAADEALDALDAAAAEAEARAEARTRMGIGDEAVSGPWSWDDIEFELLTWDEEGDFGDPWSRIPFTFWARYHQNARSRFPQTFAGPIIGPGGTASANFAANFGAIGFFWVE
UniProt O95819: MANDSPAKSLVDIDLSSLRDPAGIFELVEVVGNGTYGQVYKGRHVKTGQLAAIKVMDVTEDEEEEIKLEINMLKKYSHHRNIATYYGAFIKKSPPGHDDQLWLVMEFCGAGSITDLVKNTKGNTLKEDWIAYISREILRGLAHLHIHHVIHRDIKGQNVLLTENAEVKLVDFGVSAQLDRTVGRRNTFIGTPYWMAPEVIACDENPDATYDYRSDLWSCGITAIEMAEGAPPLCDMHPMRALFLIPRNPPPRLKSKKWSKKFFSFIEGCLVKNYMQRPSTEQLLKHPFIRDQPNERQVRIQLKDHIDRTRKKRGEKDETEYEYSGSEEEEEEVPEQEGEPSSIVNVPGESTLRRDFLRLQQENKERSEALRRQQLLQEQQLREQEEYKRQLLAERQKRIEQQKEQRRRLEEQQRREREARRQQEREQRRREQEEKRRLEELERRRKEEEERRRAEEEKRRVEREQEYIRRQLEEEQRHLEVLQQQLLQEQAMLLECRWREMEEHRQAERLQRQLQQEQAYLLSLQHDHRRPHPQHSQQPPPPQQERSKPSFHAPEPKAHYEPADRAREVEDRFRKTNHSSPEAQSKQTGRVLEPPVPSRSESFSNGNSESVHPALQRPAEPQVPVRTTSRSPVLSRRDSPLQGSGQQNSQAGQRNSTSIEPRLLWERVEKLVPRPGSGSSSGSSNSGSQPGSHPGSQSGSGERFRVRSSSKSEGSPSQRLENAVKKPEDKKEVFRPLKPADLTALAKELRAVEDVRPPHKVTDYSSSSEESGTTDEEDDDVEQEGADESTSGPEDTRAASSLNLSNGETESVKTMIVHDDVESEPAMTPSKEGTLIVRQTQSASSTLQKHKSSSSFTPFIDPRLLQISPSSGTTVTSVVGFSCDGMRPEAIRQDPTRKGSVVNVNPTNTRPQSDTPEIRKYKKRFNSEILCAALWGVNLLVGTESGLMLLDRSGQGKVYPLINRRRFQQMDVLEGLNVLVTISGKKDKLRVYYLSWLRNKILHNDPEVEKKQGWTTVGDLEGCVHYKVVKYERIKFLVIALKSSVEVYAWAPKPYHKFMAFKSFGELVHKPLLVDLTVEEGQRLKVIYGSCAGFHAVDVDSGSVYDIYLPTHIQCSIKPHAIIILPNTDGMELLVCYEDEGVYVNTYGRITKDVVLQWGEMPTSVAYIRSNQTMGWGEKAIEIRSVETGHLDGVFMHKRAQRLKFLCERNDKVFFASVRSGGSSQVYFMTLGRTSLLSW

Columns and labels:
Experiment in all cases: log2 fold change, soluble protein after heating vs DMSO (PISA); higher = thermal stabilisation; K562 lysate, 10 uM; active = over 0.2 and 3.5 SD of the protein, either way, in both replicates (recomputed)
[1] = compound: CCCS(=O)(=O)Nc1ccc(F)c(C(=O)c2c[nH]c3ncc(-c4ccc(Cl)cc4)cc23)c1F [vemurafenib]
Outline: (§1)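 K562 pellets were dounce-homogenised in PBS pH 7.4 containing 1 mM MgCl2, and the crude extract, at 1 mg/mL protein, was exposed to 10 μM compound for 30 min. Aliquots were heated for 3 min across 48°C-58°C, pooled, brought to 0.5% NP-40 at 4°C and spun at 21,000xg for 90 min, with the supernatant taken as soluble protein. TMTpro 16plex LC-MS/MS with equalised channel sums quantified that protein. Values are log-two fold changes in thermal stability relative to solvent controls, taken from duplicates.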

[2] = compound: CCCS(=O)(=O)Nc1ccc(F)c(C(=O)c2c[nH]c3ncc(Cl)cc23)c1F
Outline: as §1

[3] = compound: CCN(CCCOc1ccc2c(Nc3cc(CC(=O)Nc4cccc(F)c4)[nH]n3)ncnc2c1)CCOP(=O)(O)O [barasertib]
Outline: as §1

[4] = compound: CC[C@@H]1C(=O)N(C)c2cnc(Nc3ccc(C(=O)NC4CCN(C)CC4)cc3OC)nc2N1C1CCCC1
Outline: as §1

[5] = compound: CC[C@@H]1C(=O)N(C)c2cnc(Nc3ccc(C(=O)N[C@H]4CC[C@H](N5CCN(CC6CC6)CC5)CC4)cc3OC)nc2N1C(C)C [volasertib]
Outline: as §1

[6] = compound: CCn1c(C(=O)N(C2CC2)C2CC2)cc2c3c(ncn3C)c(Nc3cc(C)n(C)n3)nc21
Outline: as §1

[7] = compound: CCn1cc(-c2ccnc3[nH]c(-c4cccc(CN(C)C)c4)cc23)c(-c2ccc(NC(=O)N(C)C)cc2)n1
Outline: as §1

[8] = compound: CN1CCC(CNc2ccc3ncc(-c4cccc(OC(F)(F)F)c4)n3n2)CC1
Outline: as §1

[9] = compound: CN1CCN(CCOc2cc(OC3CCOCC3)c3c(Nc4c(Cl)ccc5c4OCO5)ncnc3c2)CC1 [saracatinib]
Outline: as §1

[10] = compound: CN1CCN(c2nc(C3=C(c4c[nH]c5ccccc45)C(=O)NC3=O)c3ccccc3n2)CC1 [sotrastaurin]
Outline: as §1

[11] = compound: CN1CC[C@H](c2c(O)cc(O)c3c(=O)cc(-c4ccccc4Cl)oc23)[C@H](O)C1 [alvocidib]
Outline: as §1

[12] = compound: CN1CCc2c(c3ccccc3n2Cc2ccc(C(=O)NO)cc2)C1 [Tubastatin A]
Outline: as §1

[13] = compound: CNC(=O)C1=CC=CC=C1NC2=NC(=NC=C2Cl)NC3=C(C=C(C=C3)N4CCOCC4)OC
Outline: as §1

[14] = compound: CNC(=O)c1ccc(Nc2ncc(C(F)(F)F)c(NCc3nccnc3N(C)S(C)(=O)=O)n2)cc1 [defactinib]
Outline: as §1

[15] = compound: CNc1nc(-c2ccc3c(N)n[nH]c3c2)cc(N2C[C@@H](C(=O)NC3CCCCC3)CC[C@H]2C)n1
Outline: as §1

[16] = compound: COC(=O)N[C@@H](C)CNc1nccc(-c2cn(C(C)C)nc2-c2cc(Cl)cc(NS(C)(=O)=O)c2F)n1 [encorafenib]
Outline: as §1

[17] = compound: COC(=O)[C@H](CCSC)NC(=O)C1=C(C=C(C=C1)NC[C@H](CS)N)C2=CC=CC=C2
Outline: as §1

[18] = compound: COc1cc(Nc2ncc3c(n2)-c2ccc(Cl)cc2C(c2c(F)cccc2OC)=NC3)ccc1C(=O)O [alisertib]
Outline: as §1

[19] = compound: COc1cc2nc(-c3cc(F)ccc3O)nc(N[C@@H]3CNC[C@H]3C(C)(C)O)c2cc1OC
Outline: as §1

[20] = compound: COc1cc2ncnc(Nc3ccc(F)c(Cl)c3)c2cc1OCCCN1CCOCC1 [gefitinib]
Outline: as §1

Measured: log2 fold change

MANF (UniProt P55145)
inactive: [1] -0.018 | [2] 0.003 | [3] 0.004 | [4] 0.015 | [5] 0.024 | [6] 0 | [7] -0.038 | [8] 0.034 | [9] -0.057 | [10] 0.031 | [11] -0.008 | [12] 0.028 | [13] 0 | [14] -0.044 | [15] -0.046 | [16] -0.006 | [17] -0.083 | [18] 0.016 | [19] 0.01 | [20] 0.005

MACROD1 (UniProt Q9BQ69)
inactive: [1] 0.016 | [2] 0.043 | [3] -0.002 | [4] 0.033 | [5] -0.015 | [6] -0.012 | [7] -0.043 | [8] -0.014 | [9] 0.008 | [10] 0.002 | [11] 0.12 | [12] -0.104 | [13] 0.012 | [14] 0.039 | [15] 0.015 | [16] 0.029 | [17] -0.074 | [18] -0.037 | [19] -0.001 | [20] 0.033

MAF1 (UniProt Q9H063)
inactive: [1] -0.061 | [2] 0.012 | [3] 0.007 | [4] 0.049 | [5] -0.011 | [6] 0.071 | [7] 0.097 | [8] 0.029 | [9] 0.145 | [10] -0.016 | [11] 0.116 | [12] -0.144 | [13] -0.01 | [14] 0.032 | [15] -0.119 | [16] -0.011 | [17] -0.028 | [18] -0.038 | [19] -0.031 | [20] -0.035

MANEA (UniProt Q5SRI9)
inactive: [1] 0.035 | [2] -0.019 | [3] -0.071 | [4] -0.001 | [5] -0.084 | [6] 0.005 | [8] 0.254 | [9] -0.059 | [10] -0.019 | [11] -0.078 | [12] -0.08 | [13] -0.016 | [14] 0.062 | [15] -0.09 | [16] 0.028 | [17] -0.07 | [19] 0.041
active: [7] -0.627

MACF1, A0A0A6YYJ5
inactive: [1] 0.062 | [3] 0.1 | [4] 0.116 | [6] 0.076 | [7] -0.035 | [8] -0.129 | [9] 0.04 | [10] -0.006 | [11] -0.022 | [12] -0.02 | [13] -0.023 | [14] -0.092 | [15] -0.094 | [16] -0.037 | [17] 0.014 | [18] -0.03 | [20] -0.011

MAPT isoform 7 (UniProt P10636)
inactive: [1] -0.056 | [2] 0.042 | [5] -0.021 | [7] -0.071 | [8] -0.005 | [10] -0.028 | [11] 0.095 | [14] -0.099 | [19] 0.018

LUC7L2 (UniProt Q9Y383)
inactive: [1] -0.02 | [2] -0.011 | [3] -0.013 | [4] -0.042 | [5] 0.032 | [6] 0.004 | [7] 0.147 | [8] -0.013 | [9] -0.009 | [10] -0.052 | [11] -0.081 | [12] 0.03 | [13] -0.039 | [14] -0.063 | [15] -0.058 | [16] 0.026 | [17] -0.029 | [18] 0.001 | [19] -0.005 | [20] -0.003

MAFF (UniProt Q9ULX9)
inactive: [1] 0.075 | [2] -0.027 | [4] -0.029 | [5] -0.21 | [7] -0.154 | [8] -0.019 | [10] 0.027 | [11] 0.082 | [13] 0.24 | [14] 0.189 | [16] -0.131 | [17] -0.156 | [19] 0.021

MAPRE3 isoform 2 (UniProt Q9UPY8)
inactive: [1] 0.092 | [2] -0.144 | [3] -0.045 | [5] -0.026 | [6] -0.095 | [7] -0.075 | [8] -0.109 | [10] 0.118 | [11] 0.185 | [12] -0.219 | [13] -0.016 | [14] 0 | [19] -0.071

MAP4 isoform 5 (UniProt P27816)
inactive: [1] -0.019 | [2] -0.035 | [3] -0.038 | [4] 0.069 | [5] 0.044 | [6] -0.266 | [9] 0.041 | [10] -0.04 | [12] 0.077 | [13] 0.087 | [14] -0.086 | [15] 0.138 | [16] -0.051 | [17] -0.025 | [18] 0.047 | [19] -0.028 | [20] 0.039

MAP3K2 (UniProt Q9Y2U5)
inactive: [1] 0.425 | [3] -0.032 | [4] 0.111 | [7] -0.306 | [8] -0.225 | [9] -0.039 | [10] -0.037 | [11] 0.018 | [13] 0.024 | [14] -0.008 | [15] 0.191 | [16] 0.023 | [17] 0.248

2 neighbouring entries from above, for reference:
MAFF (UniProt Q9ULX9)
inactive: [1] 0.075 | [2] -0.027 | [4] -0.029 | [5] -0.21 | [7] -0.154 | [8] -0.019 | [10] 0.027 | [11] 0.082 | [13] 0.24 | [14] 0.189 | [16] -0.131 | [17] -0.156 | [19] 0.021

MAPRE3 isoform 2 (UniProt Q9UPY8)
inactive: [1] 0.092 | [2] -0.144 | [3] -0.045 | [5] -0.026 | [6] -0.095 | [7] -0.075 | [8] -0.109 | [10] 0.118 | [11] 0.185 | [12] -0.219 | [13] -0.016 | [14] 0 | [19] -0.071

The list continues.

LYAR (UniProt Q9NX58)
inactive: [1] 0.011 | [2] 0.005 | [3] -0.024 | [4] 0.005 | [5] 0.003 | [6] -0.027 | [8] -0.128 | [9] 0.028 | [10] -0.039 | [11] 0.072 | [12] 0.018 | [13] 0.006 | [14] 0.014 | [15] -0.002 | [16] -0.005 | [17] 0.021 | [18] 0.005 | [19] -0.001 | [20] -0.043
active: [7] 0.312

MAGEA12 (UniProt P43365)
inactive: [1] -0.068 | [4] -0.043 | [7] 0.16 | [8] -0.014 | [10] -0.04 | [11] -0.057 | [14] 0.018 | [16] 0.12 | [17] -0.003

MAP4K5 (UniProt Q9Y4K4)
inactive: [1] 0.185 | [2] -0.011 | [3] 0.23 | [5] -0.069 | [6] 0.014 | [7] 0 | [8] -0.007 | [9] 0.01 | [11] 0.045 | [12] -0.021 | [13] 0.068 | [14] 0.125 | [15] -0.006 | [16] 0.009 | [17] -0.191 | [18] -0.027 | [19] 0.189 | [20] 0.086

MAGED1 isoform 2 (UniProt Q9Y5V3)
inactive: [1] 0.111 | [2] 0.198 | [3] 0.101 | [5] 0.02 | [6] 0.011 | [7] -0.034 | [8] -0.015 | [10] 0.005 | [11] -0.162 | [12] -0.012 | [13] -0.114 | [14] 0.053 | [18] 0.006 | [19] -0.125 | [20] -0.037

MAP3K1 (UniProt Q13233)
inactive: [1] 0.035 | [4] -0.002 | [6] -0.167 | [7] -0.083 | [8] 0.104 | [10] -0.232 | [11] 0.122 | [12] -0.111 | [14] 0.007 | [16] 0.133 | [17] 0.235 | [18] -0.086 | [20] 0.027

MAGI3 isoform 1 (UniProt Q5TCQ9)
inactive: [1] -0.006 | [2] 0.008 | [3] 0 | [4] 0.033 | [5] -0.076 | [6] -0.009 | [7] -0.032 | [8] 0.022 | [9] -0.014 | [11] -0.089 | [12] -0.119 | [13] -0.049 | [14] -0.037 | [15] -0.053 | [16] -0.041 | [17] 0.019 | [18] -0.009 | [19] 0.012 | [20] -0.141

MAP4K4 isoform 3 (UniProt O95819)
inactive: [1] -0.185 | [2] -0.119 | [3] -0.029 | [4] -0.071 | [5] 0.011 | [6] -0.011 | [7] 0.169 | [8] -0.158 | [9] 0.082 | [12] -0.016 | [13] -0.028 | [14] 0.03 | [15] -0.08 | [16] -0.075 | [17] -0.014 | [19] 0.035 | [20] -0.051
